This test is described as follows: modulators of CD8 T cell-vesicle binding, confirmation, cherry-picked primary hits, two concentrations (AID 2810).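 For all read-outs here: lower values mean blocking of vesicle binding.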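 For percent response (vesicle binding): ratio of mean FL2 vesicle stain of CD8+ cells to that row's control.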 The conditions noted are these: 2C CD8+ T cell-vesicle binding, flow cytometry; for double positive events: CD8+/vesicle+ events. Background: In flow cytometry, cells or beads pass a laser one at a time.
[1] abbreviates: at 15.4 µM, stronger effect = lower value.

SMILES strings stand for the structures. Some of the results follow. These are further read-outs of the screen, such as a control signal, another cell line or another target. No call is given for them.

`O=C(CCCn1cnc([N+](=O)[O-])n1)Nc1ccc(Cl)cc1Cl` gave a double positive events (at 7.7 µM) of 13.4% and a double positive events under setting [1] of 10.1%. Further, the percent response (vesicle binding) (at 7.7 µM) came out at 110%.

Regarding `O=C(c1cc2ccccc2oc1=O)N(c1ccc(Cl)cc1)C1C=CS(=O)(=O)C1` (stereo unspecified), for the setting “at 7.7 µM”, the double positive events came to 16.4% and the percent response (vesicle binding) was found to be 480%. For the same molecule, the double positive events under setting [1] was 17.1%.

For the molecule `O=C(Oc1ccc(C(=S)N2CCOCC2)cc1)c1ccc(F)cc1`, where the note is “at 7.7 µM”, the double positive events turned out to be 25.9% and the percent response (vesicle binding) stood at 851%. For the same molecule, the double positive events under setting [1] was found to be 22.8%.

For `CC(C)c1cc(C(=O)N/N=C/C(Br)=C/c2ccccc2)n[nH]1`, for the setting “at 7.7 µM”, the double positive events was 16.8% and the percent response (vesicle binding) was determined as 185%. The molecule further yielded a double positive events under setting [1] of 18%.

Take `Cc1ccc(S(=O)(=O)N(C)CC(=O)OCC(=O)NCCc2ccc(S(N)(=O)=O)cc2)cc1`: for the setting “at 7.7 µM”, the double positive events was determined as 39.8% and the percent response (vesicle binding) worked out at 555%. Under setting [1], this molecule showed a double positive events of 16.2%.

Regarding `Cc1ccc(N2C(=O)S/C(=C/c3cn(C)c4ccccc34)C2=O)cc1`, the double positive events is, setting by setting: (at 7.7 µM) 37.8%; under setting [1], 33.5%. The percent response (vesicle binding) (at 7.7 µM) came out at 264%.

As to `CN1CCN(S(=O)(=O)c2ccc(C(=O)Nc3ccccc3)cc2)CC1`, where the note is “at 7.7 µM”, the double positive events stood at 10.1% and the percent response (vesicle binding) worked out at 153%. For the same molecule, the double positive events under setting [1] turned out to be 33.2%.

On to `O=C(CS(=O)(=O)c1c[nH]c2ccccc12)Nc1ccc(F)cc1`, for which, under “at 7.7 µM”, the double positive events amounted to 9.2% and the percent response (vesicle binding) is 485%. The molecule also came in with a double positive events under setting [1] of 18.8%.

For `NS(=O)(=O)c1ccc(CCNC(=O)C2CCCCC2)cc1`, for the setting “at 7.7 µM”, the double positive events stood at 38.3% and the percent response (vesicle binding) was 316%. Moreover, the double positive events under setting [1] was found to be 14.9%.

Regarding `O=C1C(=O)N(CCCn2ccnc2)C(c2ccc([N+](=O)[O-])cc2)/C1=C(\O)c1ccc2c(c1)OCCO2` (stereo unspecified), the double positive events was determined as 34.2% (at 7.7 µM) and 26.3% under setting [1]. The percent response (vesicle binding) (at 7.7 µM) amounted to 236%.

Consider `CCN1CCN(C(=O)C(=O)c2cn(CC(=O)N(CC)CC)c3ccccc23)CC1`, for which, for the setting “at 7.7 µM”, the double positive events was 20.2% and the percent response (vesicle binding) was 282%. The double positive events under setting [1] came out at 29.5%.

As for `Cc1ccc(S(=O)(=O)N2CCN(C(=O)CNC(=O)c3ccc(Cl)cc3)CC2)cc1`, where the note is “at 7.7 µM”, the double positive events was found to be 6.9% and the percent response (vesicle binding) came to 106%. Moreover, the double positive events under setting [1] was determined as 23.9%.

Under “at 7.7 µM”, `Cc1ccccc1NC(=S)N(C)Cc1cn(C)c2ccccc12` showed a double positive events of 14.9% and a percent response (vesicle binding) of 127%. The double positive events under setting [1] stood at 17.1%.

Turning to `CC(C)C(C(=O)NC1=NCCS1)c1ccc(Cl)cc1` (stereo unspecified), where the note is “at 7.7 µM”, the double positive events came to 26.1% and the percent response (vesicle binding) stood at 259%. The double positive events under setting [1] was found to be 11.5%.

Regarding `Cc1nnc(NC(=O)CCC(=O)N2CCN(S(=O)(=O)c3cc([N+](=O)[O-])ccc3C)CC2)s1`, for the setting “at 7.7 µM”, the double positive events was 8.4% and the percent response (vesicle binding) was 301%. This molecule showed a double positive events under setting [1] of 16.2%.

Where the note is “at 7.7 µM”, `Cn1c(=O)c2c(ncn2CC(=O)OCCCC(=O)c2ccc(Br)cc2)n(C)c1=O` gave a double positive events of 34.6% and a percent response (vesicle binding) of 526%. Besides, the double positive events under setting [1] is 15.7%.

For the setting “at 7.7 µM”, `CCOC(=O)c1ccc(NC(=S)Nc2cccc(C)n2)cc1` showed a double positive events of 27.7% and a percent response (vesicle binding) of 354%. This molecule also displayed a double positive events under setting [1] of 36.5%.

Under “at 7.7 µM”, `Cn1cc(C(=O)N/N=C/C=C/c2ccccc2)ccc1=O` registered a double positive events of 23% and a percent response (vesicle binding) of 340%. Also, the double positive events under setting [1] was found to be 13%.

On to `Cc1ccc(SCC(=O)NNC(=O)C2CCCCC2)cc1`, for which, for the setting “at 7.7 µM”, the double positive events stood at 16.5% and the percent response (vesicle binding) is 470%. In addition, the double positive events under setting [1] was 9.8%.

Take `Cc1cc(=O)oc2c3c(cc(OCC(=O)NCc4ccncc4)c12)OC(C)(C)CC3`: for the setting “at 7.7 µM”, the double positive events came to 13.3% and the percent response (vesicle binding) came to 138%. Under setting [1], this molecule gave a double positive events of 24.8%.

On to `CN1CCN(C(=O)c2cc3ccccc3cc2O)CC1`, for which, for the setting “at 7.7 µM”, the double positive events turned out to be 18.4% and the percent response (vesicle binding) was 240%. The molecule further yielded a double positive events under setting [1] of 9.2%.

As for `O=C(Nc1cccc(F)c1)NC1CCCc2ccccc21` (stereo unspecified), for the setting “at 7.7 µM”, the double positive events was 9.6% and the percent response (vesicle binding) worked out at 391%. Moreover, the double positive events under setting [1] was found to be 16.8%.
